The text below walks through data of paper PMC8881573, “Inhibition of SRP-dependent protein secretion by the bacterial alarmone (p)ppGpp” (Nature Communications, 2022).

Amino acid sequences for entries named in this document (tags omitted).
UniProt P37105: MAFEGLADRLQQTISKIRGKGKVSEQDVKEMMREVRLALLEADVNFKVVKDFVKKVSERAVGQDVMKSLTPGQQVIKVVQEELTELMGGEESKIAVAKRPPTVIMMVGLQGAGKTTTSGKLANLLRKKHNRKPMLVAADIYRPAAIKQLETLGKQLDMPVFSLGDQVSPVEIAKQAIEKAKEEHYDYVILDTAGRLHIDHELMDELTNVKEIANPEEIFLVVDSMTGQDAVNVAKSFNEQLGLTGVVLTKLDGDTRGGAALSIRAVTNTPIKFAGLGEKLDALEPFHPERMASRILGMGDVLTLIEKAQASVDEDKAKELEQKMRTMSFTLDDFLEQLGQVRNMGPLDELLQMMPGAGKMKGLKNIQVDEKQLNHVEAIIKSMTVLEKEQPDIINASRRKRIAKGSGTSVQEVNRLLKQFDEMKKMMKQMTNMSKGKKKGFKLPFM

The target in this test is MifM nascent chain of the MifM-stalled RNC (B. subtilis) (UniProt Q7WY64). Description: cryo-EM structure; (Bs)SRP pre-incubated with pppGpp, tenfold molar excess over MifM-stalled RNCs, 10 min at room temperature; both purified.

Results are given in words; binding and its absence hold for the method and conditions named. Some binding calls cover weakened binding; strength is not graded here.

On to “recombinant (Bs)SRP (Ffh and 6S RNA) (from UniProt P37105 1-446)”, for which the binding result is “binds”.
